Reference: patent US20250283871A1, “COMPOSITIONS AND METHODS FOR MODULATING THE INTERACTION BETWEEN SS18-SSX FUSION ONCOPROTEIN AND NUCLEOSOMES” (Dana-Farber Cancer Institute, Inc., priority 2020, published 2025)

B1: SLC33A1 (protein)
chain: MSPTISHKDSSRQRRPGNFSHSLDMKSGPLPPGGWDDSHLDSAGREGDREALLGDTGTGDFLKAPQSFRAELSSILLLLFLYVLQGIPLGLAGSIPLILQSKNVSYTDQAFFSFVFWPFSLKLLWAPLVDAVYVKNFGRRKSWLVPTQYILGLFMIYLSTQVDRLLGNTDDRTPDVIALTVAFFLFEFLAATQDIAVDGWALTMLSRENVGYASTCNSVGQTAGYFLGNVLFLALESADFCNKYLRFQPQPRGIVTLSDFLFFWGTVFLITTTLVALLKKENEVSVVKEETQGITDTYKLLFAIIKMPAVLTFCLLILTAKIGFSAADAVTGLKLVEEGVPKEHLALLAVPMVPLQIILPLIISKYTAGPQPLNTFYKAMPYRLLLGLEYALLVWWTPKVEHQGGFPIYYYIVVLLSYALHQVTVYSMYVSIMAFNAKVSDPLIGGTYMTLLNTVSNLGGNWPSTVALWLVDPLTVKECVGASNQNCRTPDAVELCKKLGGSCVTALDGYYVESIICVFIGFGWWFFLGPKFKKLQDEGSSSWKCKRNN
B2: CAND1 (protein, UniProt Q86VP6 2-1230, looked up)
Cullin-associated …: ASASYHISNLLEKMTSSDKDFRFMATNDLMTELQKDSIKLDDDSERKVVKMILKLLEDKNGEVQNLAVKCLGPLVSKVKEYQVETIVDTLCTNMLSDKEQLRDISSIGLKTVIGELPPASSGSALAANVCKKITGRLTSAIAKQEDVSVQLEALDIMADMLSRQGGLLVNFHPSILTCLLPQLTSPRLAVRKRTIIALGHLVMSCGNIVFVDLIEHLLSELSKNDSMSTTRTYIQCIAAISRQAGHRIGEYLEKIIPLVVKFCNVDDDELREYCIQAFESFVRRCPKEVYPHVSTIINICLKYLTYDPNYNYDDEDEDENAMDADGGDDDDQGSDDEYSDDDDMSWKVRRAAAKCLDAVVSTRHEMLPEFYKTVSPALISRFKEREENVKADVFHAYLSLLKQTRPVQSWLCDPDAMEQGETPLTMLQSQVPNIVKALHKQMKEKSVKTRQCCFNMLTELVNVLPGALTQHIPVLVPGIIFSLNDKSSSSNLKIDALSCLYVILCNHSPQVFHPHVQALVPPVVACVGDPFYKITSEALLVTQQLVKVIRPLDQPSSFDATPYIKDLFTCTIKRLKAADIDQEVKERAISCMGQIICNLGDNLGSDLPNTLQIFLERLKNEITRLTTVKALTLIAGSPLKIDLRPVLGEGVPILASFLRKNQRALKLGTLSALDILIKNYSDSLTAAMIDAVLDELPPLISESDMHVSQMAISFLTTLAKVYPSSLSKISGSILNELIGLVRSPLLQGGALSAMLDFFQALVVTGTNNLGYMDLLRMLTGPVYSQSTALTHKQSYYSIAKCVAALTRACPKEGPAVVGQFIQDVKNSRSTDSIRLLALLSLGEVGHHIDLSGQLELKSVILEAFSSPSEEVKSAASYALGSISVGNLPEYLPFVLQEITSQPKRQYLLLHSLKEIISSASVVGLKPYVENIWALLLKHCECAEEGTRNVVAECLGKLTLIDPETLLPRLKGYLISGSSYARSSVVTAVKFTISDHPQPIDPLLKNCIGDFLKTLEDPDLNVRRVALVTFNSAAHNKPSLIRDLLDTVLPHLYNETKVRKELIREVEMGPFKHTVDDGLDIRKAAFECMYTLLDSCLDRLDIFEFLNHVEDGLKDHYDIKMLTFLMLVRLSTLCPSAVLQRLDRLVEPLRATCTTKVKANSVKQEFEKQDELKRSAMRAVAALLTIPEAEKSPLMSEFQSQISSNPELAAIFESIQKDSSSTNLESMDTS
B3: DGKE (protein, UniProt P52429 1-567, looked up)
Diacylglycerol kinase epsilon: MEAERRPAPGSPSEGLFADGHLILWTLCSVLLPVFITFWCSLQRSRRQLHRRDIFRKSKHGWRDTDLFSQPTYCCVCAQHILQGAFCDCCGLRVDEGCLRKADKRFQCKEIMLKNDTKVLDAMPHHWIRGNVPLCSYCMVCKQQCGCQPKLCDYRCIWCQKTVHDECMKNSLKNEKCDFGEFKNLIIPPSYLTSINQMRKDKKTDYEVLASKLGKQWTPLIILANSRSGTNMGEGLLGEFRILLNPVQVFDVTKTPPIKALQLCTLLPYYSARVLVCGGDGTVGWVLDAVDDMKIKGQEKYIPQVAVLPLGTGNDLSNTLGWGTGYAGEIPVAQVLRNVMEADGIKLDRWKVQVTNKGYYNLRKPKEFTMNNYFSVGPDALMALNFHAHREKAPSLFSSRILNKAVYLFYGTKDCLVQECKDLNKKVELELDGERVALPSLEGIIVLNIGYWGGGCRLWEGMGDETYPLARHDDGLLEVVGVYGSFHCAQIQVKLANPFRIGQAHTVRLILKCSMMPMQVDGEPWAQGPCTVTITHKTHAMMLYFSGEQTDDDISSTSDQEDIKATE
B4: IRS4 (protein, UniProt O14654 1-1257, looked up)
Insulin receptor substrate 4: MASCSFTRDQATRRLRGAAAAAAAALAAVVTTPLLSSGTPTALIGTGSSCPGAMWLSTATGSRSDSESEEEDLPVGEEVCKRGYLRKQKHGHRRYFVLKLETADAPARLEYYENARKFRHSVRAAAAAAAAAASGAAIPPLIPPRRVITLYQCFSVSQRADARYRHLIALFTQDEYFAMVAENESEQESWYLLLSRLILESKRRRCGTLGAQPDGEPAALAAAAAAEPPFYKDVWQVIVKPRGLGHRKELSGVFRLCLTDEEVVFVRLNTEVASVVVQLLSIRRCGHSEQYFFLEVGRSTVIGPGELWMQVDDCVVAQNMHELFLEKMRALCADEYRARCRSYSISIGAHLLTLLSARRHLGLVPLEPGGWLRRSRFEQFCHLRAIGDGEDEMLFTRRFVTPSEPVAHSRRGRLHLPRGRRSRRAVSVPASFFRRLAPSPARPRHPAEAPNNGARLSSEVSGSGSGNFGEEGNPQGKEDQEGSGGDYMPMNNWGSGNGRGSGGGQGSNGQGSSSHSSGGNQCSGEGQGSRGGQGSNGQGSGGNQCSRDGQGTAGGHGSGGGQRPGGGHGSGGGQGPGDGHGSGGGKNSGGGKGSGSGKGSDGDGERGKSLKKRSYFGKLTQSKQQQMPPPPPPPPPPPPAGGTGGKGKSGGRFRLYFCVDRGATKECKEAKEVKDAEIPEGAARGPHRARAFDEDEDDPYVPMRPGVATPLVSSSDYMPMAPQNVSASKKRHSRSPFEDSRGYMMMFPRVSPPPAPSPPKAPDTNKEDDSKDNDSESDYMFMAPGAGAIPKNPRNPQGGSSSKSWSSYFSLPNPFRSSPLGQNDNSEYVPMLPGKFLGRGLDKEVSYNWDPKDAASKPSGEGSFSKPGDGGSPSKPSDHEPPKNKAKRPNRLSFITKGYKIKPKPQKPTHEQREADSSSDYVNMDFTKRESNTPAPSTQGLPDSWGIIAEPRQSAFSNYVNVEFGVPFPNPANDLSDLLRAIPRANPLSLDSARWPLPPLPLSATGSNAIEEEGDYIEVIFNSAMTPAMALADSAIRYDAETGRIYVVDPFSECCMDISLSPSRCSEPPPVARLLQEEEQERRRPQSRSQSFFAAARAAVSAFPTDSLERDLSPSSAPAVASAAEPTLALSQVVAAASALAAAPGIGAAAAAAGFDSASARWFQPVANAADAEAVRGAQDVAGGSNPGAHNPSANLARGDNQAGGAAAAAAAPEPPPRSRRVPRPPEREDSDNDDDTHVRMDFARRDNQFDSPKRGR
B5: IPO5 (protein, UniProt O00410 2-1097, looked up)
Importin-5: AAAAAEQQQFYLLLGNLLSPDNVVRKQAEETYENIPGQSKITFLLQAIRNTTAAEEARQMAAVLLRRLLSSAFDEVYPALPSDVQTAIKSELLMIIQMETQSSMRKKVCDIAAELARNLIDEDGNNQWPEGLKFLFDSVSSQNVGLREAALHIFWNFPGIFGNQQQHYLDVIKRMLVQCMQDQEHPSIRTLSARATAAFILANEHNVALFKHFADLLPGFLQAVNDSCYQNDDSVLKSLVEIADTVPKYLRPHLEATLQLSLKLCGDTSLNNMQRQLALEVIVTLSETAAAMLRKHTNIVAQTIPQMLAMMVDLEEDEDWANADELEDDDFDSNAVAGESALDRMACGLGGKLVLPMIKEHIMQMLQNPDWKYRHAGLMALSAIGEGCHQQMEGILNEIVNFVLLFLQDPHPRVRYAACNAVGQMATDFAPGFQKKFHEKVIAALLQTMEDQGNQRVQAHAAAALINFTEDCPKSLLIPYLDNLVKHLHSIMVLKLQELIQKGTKLVLEQVVTSIASVADTAEEKFVPYYDLFMPSLKHIVENAVQKELRLLRGKTIECISLIGLAVGKEKFMQDASDVMQLLLKTQTDFNDMEDDDPQISYMISAWARMCKILGKEFQQYLPVVMGPLMKTASIKPEVALLDTQDMENMSDDDGWEFVNLGDQQSFGIKTAGLEEKSTACQMLVCYAKELKEGFVEYTEQVVKLMVPLLKFYFHDGVRVAAAESMPLLLECARVRGPEYLTQMWHFMCDALIKAIGTEPDSDVLSEIMHSFAKCIEVMGDGCLNNEHFEELGGILKAKLEEHFKNQELRQVKRQDEDYDEQVEESLQDEDDNDVYILTKVSDILHSIFSSYKEKVLPWFEQLLPLIVNLICPHRPWPDRQWGLCIFDDVIEHCSPASFKYAEYFLRPMLQYVCDNSPEVRQAAAYGLGVMAQYGGDNYRPFCTEALPLLVRVIQSADSKTKENVNATENCISAVGKIMKFKPDCVNVEEVLPHWLSWLPLHEDKEEAVQTFNYLCDLIESNHPIVLGPNNTNLPKIFSIIAEGEMHEAIKHEDPCAKRLANVVRQVQTSGGLWTECIAQLSPEQQAAIQELLNSA
B6: CDC42EP1 (protein, UniProt Q00587 1-391, looked up)
Cdc42 effector protein 1: MPGPQGGRGAATMSLGKLSPVGWVSSSQGKRRLTADMISHPLGDFRHTMHVGRGGDVFGDTSFLSNHGGSSGSTHRSPRSFLAKKLQLVRRVGAPPRRMASPPAPSPAPPAISPIIKNAISLPQLNQAAYDSLVVGKLSFDSSPTSSTDGHSSYGLDSGFCTISRLPRSEKPHDRDRDGSFPSEPGLRRSDSLLSFRLDLDLGPSLLSELLGVMSLPEAPAAETPAPAANPPAPTANPTGPAANPPATTANPPAPAANPSAPAATPTGPAANPPAPAASSTPHGHCPNGVTAGLGPVAEVKSSPVGGGPRGPAGPALGRHWGAGWDGGHHYPEMDARQERVEVLPQARASWESLDEEWRAPQAGSRTPVPSTVQANTFEFADAEEDDEVKV
B7: TMEM126A (protein, UniProt Q9H061 1-195, looked up)
Transmembrane protein 126A: MENHKSNNKENITIVDISRKINQLPEAERNLLENGSVYVGLNAALCGLIANSLFRRILNVTKARIAAGLPMAGIPFLTTDLTYRCFVSFPLNTGDLDCETCTITRSGLTGLVIGGLYPVFLAIPVNGGLAARYQSALLPHKGNILSYWIRTSKPVFRKMLFPILLQTMFSAYLGSEQYKLLIKALQLSEPGKEIH

system: BAF complex subunits and histone proteins; test: Mass spectrometry proteomics of purified HA-SS18 WT and HA-SS18-SSX1 complexes (Tables 5A-5E); set-up: species or system human; details: HA-SS18SSX1_NE_peptides: protein co-purified with HA-SS18-SSX1 BAF complexes from soluble nuclear extract (NE), HEK-293T cells

Molecule	Total (peptides)	Unique (peptides)
B1	2	2
B2	2	2
B3	2	2
B4	2	2
B5	2	2
B6	2	2
B7	2	2

same assay, conditions: HA-SS18WT_NE_peptides: HA-SS18 WT complexes purified from nuclear extract (NE), HEK-293T; label = protein identified (Gene Symbol)

Molecule	Total (peptides)	Unique (peptides)
B1	3	3

same assay, conditions: HA-SS18WT_NE_peptides: proteins co-purified with HA-SS18 WT from nuclear extract (NE), HEK-293T

Molecule	Total (peptides)	Unique (peptides)
B2	1	1
B3	1	1
B4	2	2
B6	2	2
B7	2	2
